Values of other authors, collected in patent US12582660B2, “Inhibitors of the RAS oncoprotein, methods of making and methods of use thereof” (University of Louisville Research Foundation, Inc., priority 2018, dated 2026).
Some of these results come from one statement about several compounds together. At least one compound was matched to its structure with a doubt left.

System: HRAS transformed NIH 3T3 cells
Conditions: read-out: IC50, anchorage-dependent and -independent growth; cited from earlier work

Structure (SMILES) | IC50
Cc1ccc(NC(=S)NNc2c([N+](=O)[O-])cc(C(F)(F)F)cc2[N+](=O)[O-])cc1Cl [Kobe0065] | 2 to 10 µM
O=[N+]([O-])c1cc(C(F)(F)F)cc([N+](=O)[O-])c1NNC(=S)Nc1ccc(F)cc1 [Kobe2602] | 2 to 10 µM
